Residue numbers refer to the chain shown, from its start. No constants are given. Whether binding was seen depends on the method and setting. Some entries that bind do so weakly or less than the wild type.
B1: F-C5 (antibody, human IgG1, V domains shown)
VH: QVQLVQSGAEVKKPGASVKVSCKASGYTFTDYYMNWVRQAPGQGLEWMGRIYPGSGNTYYAQKFQGRVTMTRDTSTSTVYMELSSLRSEDTAVYYCARGVYYFDEWGQGTLVTVSS
VL: DIQMTQSPSSLSASVGDRVTITCRASQGVRTNLAWFQQKPGKAPKSLIYAASSRQSGVPSRFSGSGSGTDFTLTISSLQPEDFATYYCQQYNSYPRTFGGGTKVEIK
B2: MH2 (antibody, human IgG1, V domains shown)
VH: B1 VH with F103Y, E105Y
VL: B1 VL with V29I, A50S, R54L, N92A
B3: MH3 (antibody, human IgG1, V domains shown)
VH: B1 VH with F103Y, E105Y
VL: B1 VL with V29I, A50S, R54L, S93A
B4: MH10 (antibody, human IgG1, V domains shown)
VH: B1 VH with F103Y, E105Y
VL: B1 VL with V29I, A50S, R54L, N92T
B5: MH11 (antibody, human IgG1, V domains shown)
VH: B1 VH with F103Y, E105Y
VL: B1 VL with V29I, R54L, S93A
B6: MH12 (antibody, human IgG1, V domains shown)
VH: B1 VH with F103Y, E105Y
VL: B1 VL with R54L
B7: MH6 (antibody, human IgG1, V domains shown)
VH: B1 VH with F103Y, E105Y
VL: B1 VL with V29I, A50S, R54L, R96K
B8: MH7 (antibody, human IgG1, V domains shown)
VH: B1 VH with F103Y, E105Y
VL: B1 VL with V29I, A50S, R54L, R96H
B9: MH8 (antibody, human IgG1, V domains shown)
VH: B1 VH with F103Y, E105Y
VL: B1 VL with V29I, A50S, R54L, N92S
B10: MH13 (antibody, human IgG1, V domains shown)
VH: B1 VH with F103Y, E105Y
VL: B1 VL with R54L, S93A
B11: TTP2 (antibody, human IgG1, V domains shown)
VH: B1 VH with F103Y, E105Y
VL: B1 VL with V29I, R54L, R96H
B12: TTP4 (antibody, human IgG1, V domains shown)
VH: B1 VH with F103Y, E105Y
VL: B1 VL with A50S, R54L, S93A, R96H
B13: TTP6 (antibody, human IgG1, V domains shown)
VH: B1 VH with F103Y, E105Y
VL: B1 VL with R54L, S93A, R96H
B14: MH5.3 (antibody, human IgG1, V domains shown)
VH: B1 VH with Y32H, S55T, Y101W, F103Y, E105Y
VL: B1 VL with V29I, R54L, N92A, S93N
B15: MH5.35 (antibody, human IgG1, V domains shown)
VH: B1 VH with D31N, G54A, Y101W, E105T
VL: B1 VL with V29I, R54L, N92A, S93N
B16: MH5.4 (antibody, human IgG1, V domains shown)
VH: B1 VH with Y32H, S55T, Y101W, E105S
VL: B1 VL with V29I, R54L, N92A, S93N
B17: MH5.5 (antibody, human IgG1, V domains shown)
VH: B1 VH with Y32H, S55T, Y101W, E105T
VL: B1 VL with V29I, R54L, N92A, S93N
B18: MH5.6 (antibody, human IgG1, V domains shown)
VH: B1 VH with Y32H, S55T, Y101W
VL: B1 VL with V29I, R54L, N92A, S93N
B19: MH5.7 (antibody, human IgG1, V domains shown)
VH: B1 VH with Y32H, S55A, Y101W, F103Y, E105Y
VL: B1 VL with V29I, R54L, N92A, S93N
B20: MH5.8 (antibody, human IgG1, V domains shown)
VH: B1 VH with Y32H, S55A, Y101W, E105S
VL: B1 VL with V29I, R54L, N92A, S93N
B21: MH5.9 (antibody, human IgG1, V domains shown)
VH: B1 VH with Y32H, S55A, Y101W, E105T
VL: B1 VL with V29I, R54L, N92A, S93N
B22: MH5.10 (antibody, human IgG1, V domains shown)
VH: B1 VH with Y32H, S55A, Y101W
VL: B1 VL with V29I, R54L, N92A, S93N
B23: MH5.11 (antibody, human IgG1, V domains shown)
VH: B1 VH with Y32H, G54A, Y101W, F103Y, E105Y
VL: B1 VL with V29I, R54L, N92A, S93N
B24: MH5.12 (antibody, human IgG1, V domains shown)
VH: B1 VH with Y32H, G54A, Y101W, E105S
VL: B1 VL with V29I, R54L, N92A, S93N
B25: MH5.13 (antibody, human IgG1, V domains shown)
VH: B1 VH with Y32H, G54A, Y101W, E105T
VL: B1 VL with V29I, R54L, N92A, S93N
B26: MH5.14 (antibody, human IgG1, V domains shown)
VH: B1 VH with Y32H, G54A, Y101W
VL: B1 VL with V29I, R54L, N92A, S93N
B27: MH5.15 (antibody, human IgG1, V domains shown)
VH: B1 VH with Y32F, S55T, Y101W, E105S
VL: B1 VL with V29I, R54L, N92A, S93N
B28: MH5.16 (antibody, human IgG1, V domains shown)
VH: B1 VH with Y32F, S55T, Y101W, E105T
VL: B1 VL with V29I, R54L, N92A, S93N
B29: MH5.17 (antibody, human IgG1, V domains shown)
VH: B1 VH with Y32F, S55T, Y101W
VL: B1 VL with V29I, R54L, N92A, S93N
B30: MH5.18 (antibody, human IgG1, V domains shown)
VH: B1 VH with Y32F, S55A, Y101W, F103Y, E105Y
VL: B1 VL with V29I, R54L, N92A, S93N
B31: MH5.19 (antibody, human IgG1, V domains shown)
VH: B1 VH with Y32F, S55A, Y101W, E105S
VL: B1 VL with V29I, R54L, N92A, S93N
B32: MH5.20 (antibody, human IgG1, V domains shown)
VH: B1 VH with Y32F, S55A, Y101W, E105T
VL: B1 VL with V29I, R54L, N92A, S93N
B33: MH5.21 (antibody, human IgG1, V domains shown)
VH: B1 VH with Y32F, S55A, Y101W
VL: B1 VL with V29I, R54L, N92A, S93N
B34: MH5.25 (antibody, human IgG1, V domains shown)
VH: B1 VH with Y32F, G54A, Y101W
VL: B1 VL with V29I, R54L, N92A, S93N

Protein sequences, listed by entry. Tags and fused reporters are not part of them. Lines headed by an entry give the natural chain unless they say otherwise; changes in a name come on top.
UniProt P10721: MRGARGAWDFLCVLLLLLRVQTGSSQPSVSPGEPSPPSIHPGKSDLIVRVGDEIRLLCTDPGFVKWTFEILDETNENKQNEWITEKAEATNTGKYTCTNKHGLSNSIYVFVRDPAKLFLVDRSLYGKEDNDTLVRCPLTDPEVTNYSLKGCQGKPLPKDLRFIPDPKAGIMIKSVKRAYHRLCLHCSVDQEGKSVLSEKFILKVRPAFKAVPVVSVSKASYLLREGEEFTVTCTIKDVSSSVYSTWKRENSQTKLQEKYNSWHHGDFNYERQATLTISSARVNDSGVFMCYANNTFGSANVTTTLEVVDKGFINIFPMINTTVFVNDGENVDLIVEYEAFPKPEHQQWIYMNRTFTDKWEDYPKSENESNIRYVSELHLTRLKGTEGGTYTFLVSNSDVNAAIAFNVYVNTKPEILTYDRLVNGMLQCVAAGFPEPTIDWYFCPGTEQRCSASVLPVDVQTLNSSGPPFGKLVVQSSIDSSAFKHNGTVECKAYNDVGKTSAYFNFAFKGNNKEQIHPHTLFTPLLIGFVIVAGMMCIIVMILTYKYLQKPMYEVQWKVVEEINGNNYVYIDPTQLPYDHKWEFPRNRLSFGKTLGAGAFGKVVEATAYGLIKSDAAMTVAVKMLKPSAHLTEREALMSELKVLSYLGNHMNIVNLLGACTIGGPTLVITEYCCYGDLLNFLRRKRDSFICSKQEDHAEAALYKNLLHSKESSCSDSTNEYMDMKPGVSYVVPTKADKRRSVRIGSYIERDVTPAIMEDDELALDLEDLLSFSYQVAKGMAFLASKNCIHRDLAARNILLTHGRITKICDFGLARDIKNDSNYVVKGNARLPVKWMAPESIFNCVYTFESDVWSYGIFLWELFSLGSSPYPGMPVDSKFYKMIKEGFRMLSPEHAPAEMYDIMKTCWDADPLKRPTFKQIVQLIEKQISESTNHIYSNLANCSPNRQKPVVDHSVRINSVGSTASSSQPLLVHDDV

Target: human C-KIT-Fc protein (human) (UniProt P10721)
Assay: direct titration ELISA

Row | Binder | binding
1 | B1 | binds
2 | B2 | binds
3 | B3 | binds
4 | B4 | binds
5 | B5 | binds
6 | B6 | binds
7 | B7 | binds
8 | B8 | binds
9 | B9 | binds
10 | B10 | binds
11 | B11 | binds
12 | B12 | binds
13 | B13 | binds
14 | B14 | binds
15 | B15 | binds
16 | B16 | binds
17 | B17 | binds

Row | Binder | binding
18 | B18 | binds
19 | B19 | binds
20 | B20 | binds
21 | B21 | binds
22 | B22 | binds
23 | B23 | binds
24 | B24 | binds
25 | B25 | binds
26 | B26 | binds
27 | B27 | binds
28 | B28 | binds
29 | B29 | binds
30 | B30 | binds
31 | B31 | binds
32 | B32 | binds
33 | B33 | binds
34 | B34 | binds

Source: patent US20230212285A1
